# The supplement of paper PMC4635364
# Counter-ions that a name gives are not always drawn. Some of the results follow. Single values are uncertain here, since repeats match poorly.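 ReNCell VM, a human fetal ventral-midbrain neural progenitor line, was differentiated without mitogens. Blinded raters scored images stained for doublecortin (early neurons) or tyrosine hydroxylase (dopaminergic neurons) against untreated wells (0 = no change). Scores were averaged across repeats and both raters, and compounds averaging 2 or more were selected as hits for retesting.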
# Columns and labels:
# ReNCell VM [1] = assay: neuronal differentiation score (DCX+ cell fraction vs untreated, manual image score) (score (-3 to 3)); higher = more neuronal differentiation; conditions: 2 uM, 2 weeks
# ReNCell VM [2] = assay: dopaminergic neuron differentiation score (TH+ cell fraction vs untreated, manual image score) (score (0 to 3)); higher = more TH+ dopaminergic neuron differentiation; conditions: 2 uM, 4 weeks, BDNF 10 ng/ml + GDNF 10 ng/ml
smiles,measurement,setting,value
O=c1[nH]c2ccccc2n1CCCN1CCN(C(c2ccccc2)c2ccccc2)CC1 [Oxatomide],neuronal differentiation score,ReNCell VM [1]; library: LOPAC,inactive: 0
same,dopaminergic neuron differentiation score,ReNCell VM [2]; library: LOPAC,inactive: 0
N[C@@H](C(=O)O)c1ccc(C(=O)O)c(C(=O)O)c1,neuronal differentiation score,ReNCell VM [1]; library: Tocriscreen,inactive: 0
same,dopaminergic neuron differentiation score,ReNCell VM [2]; library: Tocriscreen,inactive: 0
CN1CCC(Nc2ncc3ncnc(Nc4ccc(F)c(Cl)c4)c3n2)CC1 [BIBX 1382 dihydrochloride],neuronal differentiation score,ReNCell VM [1]; library: Tocriscreen,inactive: 0
same,dopaminergic neuron differentiation score,ReNCell VM [2]; library: Tocriscreen,inactive: 0
Nc1cc(C(Cl)=C(Cl)Cl)c(S(N)(=O)=O)cc1S(N)(=O)=O [Clorsulon],neuronal differentiation score,ReNCell VM [1]; library: Prestwick,inactive: 0
same,dopaminergic neuron differentiation score,ReNCell VM [2]; library: Prestwick,inactive: 0
COc1cc2ncnc(Nc3ccc(F)c(Cl)c3)c2cc1OCCCN1CCOCC1 [Gefitinib],neuronal differentiation score,ReNCell VM [1]; library: Prestwick,inactive: -1
same,dopaminergic neuron differentiation score,ReNCell VM [2]; library: Prestwick,inactive: 0
COc1cc(O)c2c(=O)c(OC)c(-c3ccc(OC)c(OC)c3)oc2c1,neuronal differentiation score,ReNCell VM [1]; library: Spectrum,inactive: 0
same,dopaminergic neuron differentiation score,ReNCell VM [2]; library: Spectrum,active: 3
C1CCC(C(CC2CCCCN2)C2CCCCC2)CC1 (stereo not drawn),neuronal differentiation score,ReNCell VM [1]; library: Spectrum,inactive: 0
same,dopaminergic neuron differentiation score,ReNCell VM [2]; library: Spectrum,inactive: 0
Cc1c[nH]c2ccccc12,neuronal differentiation score,ReNCell VM [1]; library: Spectrum,inactive: 0
same,dopaminergic neuron differentiation score,ReNCell VM [2]; library: Spectrum,inactive: 0
N#C/C(=C\c1ccc(O)c(O)c1)C(=O)c1ccc(O)c(O)c1 [Tyrphostin AG 538],neuronal differentiation score,ReNCell VM [1]; library: LOPAC,inactive: 0
same,dopaminergic neuron differentiation score,ReNCell VM [2]; library: LOPAC,inactive: 0
C[C@@H](NC(=O)/C(C#N)=C/c1ccc(O)c(O)c1)c1ccccc1 [Tyrphostin AG 527],neuronal differentiation score,ReNCell VM [1]; library: LOPAC,inactive: 0
same,dopaminergic neuron differentiation score,ReNCell VM [2]; library: LOPAC,inactive: 0
O=c1[nH]cc(F)c(=O)[nH]1,neuronal differentiation score,ReNCell VM [1]; library: Spectrum,inactive: 0
same,dopaminergic neuron differentiation score,ReNCell VM [2]; library: Spectrum,inactive: 0
"O=C(O)c1c(C(=O)O)c2ccccc2[nH]c1=O [2-oxo-1,2-dihydro-quinoline-3,4-dicarboxylic acid]",neuronal differentiation score,ReNCell VM [1]; library: Natural,inactive: -1
same,dopaminergic neuron differentiation score,ReNCell VM [2]; library: Natural,inactive: 0
CC(COc1ccccc1)N(CCCl)Cc1ccccc1 (stereo not drawn),neuronal differentiation score,ReNCell VM [1]; library: Spectrum,inactive: 1
same,dopaminergic neuron differentiation score,ReNCell VM [2]; library: Spectrum,inactive: 0
CC(C)/N=c1\cc2n(-c3ccc(Cl)cc3)c3ccccc3nc-2cc1Nc1ccc(Cl)cc1 [Clofazimine],neuronal differentiation score,ReNCell VM [1]; library: Prestwick,inactive: 0
same,dopaminergic neuron differentiation score,ReNCell VM [2]; library: Prestwick,inactive: 1
Nc1c(S(=O)(=O)O)cc(Nc2cccc3ccccc23)c2c1C(=O)c1ccccc1C2=O,neuronal differentiation score,ReNCell VM [1]; library: Tocriscreen,inactive: 0
same,dopaminergic neuron differentiation score,ReNCell VM [2]; library: Tocriscreen,inactive: 1
CC(C)(C)CC(C)(C)c1ccc(OCCOCC[N+](C)(C)Cc2ccccc2)cc1 [Benzethonium chloride],neuronal differentiation score,ReNCell VM [1]; library: Prestwick,inactive: 0
same,dopaminergic neuron differentiation score,ReNCell VM [2]; library: Prestwick,inactive: 0
c1nc(CC2CCNCC2)c[nH]1 [Immepip dihydrobromide],neuronal differentiation score,ReNCell VM [1]; library: Tocriscreen,inactive: 0
same,dopaminergic neuron differentiation score,ReNCell VM [2]; library: Tocriscreen,inactive: 0
CC(C)CCCC(C)N (stereo not drawn),neuronal differentiation score,ReNCell VM [1]; library: Spectrum,inactive: 0
same,dopaminergic neuron differentiation score,ReNCell VM [2]; library: Spectrum,inactive: 0
CCCCN1CCCCC1C(=O)Nc1c(C)cccc1C (stereo not drawn) [Bupivacaine hydrochloride],neuronal differentiation score,ReNCell VM [1]; library: Prestwick,inactive: 0
same,dopaminergic neuron differentiation score,ReNCell VM [2]; library: Prestwick,inactive: 0
C=C1c2c(Cl)ccc(O)c2C(=O)C2=C(O)[C@]3(O)C(=O)C(C(N)=O)=C(O)[C@@H](N(C)C)[C@@H]3[C@@H](O)[C@H]12.O=C(O)c1cc(S(=O)(=O)O)ccc1O,neuronal differentiation score,ReNCell VM [1]; library: Spectrum,active: 3
same,dopaminergic neuron differentiation score,ReNCell VM [2]; library: Spectrum,inactive: 0
C=CC(C)(C)c1c2c(c(O)c3c(=O)c4ccc(O)c(O)c4oc13)C=CC(C)(C)O2 [macluraxanthone],neuronal differentiation score,ReNCell VM [1]; library: Natural,inactive: 0
same,dopaminergic neuron differentiation score,ReNCell VM [2]; library: Natural,inactive: 0
NC(=O)N/N=C/c1ccc(Oc2ccc(F)cc2)cc1,neuronal differentiation score,ReNCell VM [1]; library: Tocriscreen,inactive: 0
same,dopaminergic neuron differentiation score,ReNCell VM [2]; library: Tocriscreen,inactive: 0
Cc1cc(C2CCCCC2)n(O)c(=O)c1,neuronal differentiation score,ReNCell VM [1]; library: Spectrum,inactive: 0
same,dopaminergic neuron differentiation score,ReNCell VM [2]; library: Spectrum,inactive: 0
Cc1cc(O)c2c(c1)C(=O)c1cccc(O)c1C2=O,neuronal differentiation score,ReNCell VM [1]; library: Spectrum,inactive: 0
same,dopaminergic neuron differentiation score,ReNCell VM [2]; library: Spectrum,inactive: 0
Nc1ncn([C@@H]2O[C@H](CO)[C@@H](O)[C@H]2O)c(=O)n1,neuronal differentiation score,ReNCell VM [1]; library: Spectrum,inactive: 0
same,dopaminergic neuron differentiation score,ReNCell VM [2]; library: Spectrum,inactive: 0
CCc1oc2ccccc2c1C(=O)c1cc(Br)c(O)c(Br)c1 [Benzbromarone],neuronal differentiation score,ReNCell VM [1]; library: Prestwick,inactive: 0
same,dopaminergic neuron differentiation score,ReNCell VM [2]; library: Prestwick,inactive: 0
O=C(CCCN1CCC(O)(c2ccc(Cl)cc2)CC1)c1ccc(F)cc1,neuronal differentiation score,ReNCell VM [1]; library: Spectrum,inactive: 0
same,dopaminergic neuron differentiation score,ReNCell VM [2]; library: Spectrum,inactive: 0
CCN1C(=O)C=CC1=O [N-Ethylmaleimide],neuronal differentiation score,ReNCell VM [1]; library: LOPAC,inactive: 1
same,dopaminergic neuron differentiation score,ReNCell VM [2]; library: LOPAC,inactive: 0
COC1=C(OC)C(=O)C(C/C=C(\C)CC/C=C(\C)CC/C=C(\C)CC/C=C(/C)CC/C=C(\C)CC/C=C(\C)CC/C=C(\C)CC/C=C(\C)CC/C=C(\C)CCC=C(C)C)=C(C)C1=O,neuronal differentiation score,ReNCell VM [1]; library: Spectrum,inactive: 0
same,dopaminergic neuron differentiation score,ReNCell VM [2]; library: Spectrum,inactive: 0
Oc1ccccc1O [Pyrocatechol],neuronal differentiation score,ReNCell VM [1]; library: LOPAC,active: 3
same,dopaminergic neuron differentiation score,ReNCell VM [2]; library: LOPAC,inactive: 0
CN1C(=O)N(C)C2=NNC=NC2(O)C1=O (stereo not drawn),neuronal differentiation score,ReNCell VM [1]; library: Natural,inactive: 0
same,dopaminergic neuron differentiation score,ReNCell VM [2]; library: Natural,inactive: 0
O=c1oc2ccccc2c(O)c1Cc1c(O)c2ccccc2oc1=O [Dicumarol],neuronal differentiation score,ReNCell VM [1]; library: Prestwick,inactive: 0
same,dopaminergic neuron differentiation score,ReNCell VM [2]; library: Prestwick,inactive: 1
CC(C(=O)O)c1ccc2c(c1)[nH]c1ccc(Cl)cc12 (stereo not drawn),neuronal differentiation score,ReNCell VM [1]; library: Spectrum,inactive: 0
same,dopaminergic neuron differentiation score,ReNCell VM [2]; library: Spectrum,inactive: 0
CCCCC[C@H](CC(=O)NO)C(=O)N[C@H](C(=O)N1CCC[C@H]1CO)C(C)C,neuronal differentiation score,ReNCell VM [1]; library: Spectrum,inactive: 0
same,dopaminergic neuron differentiation score,ReNCell VM [2]; library: Spectrum,inactive: 0

# Shown bar-delimited: entries from further up.
smiles | measurement | setting | value
CN1CCC(Nc2ncc3ncnc(Nc4ccc(F)c(Cl)c4)c3n2)CC1 [BIBX 1382 dihydrochloride] | dopaminergic neuron differentiation score | ReNCell VM [2]; library: Tocriscreen | inactive: 0
CCCCN1CCCCC1C(=O)Nc1c(C)cccc1C (stereo not drawn) [Bupivacaine hydrochloride] | neuronal differentiation score | ReNCell VM [1]; library: Prestwick | inactive: 0
C=C1c2c(Cl)ccc(O)c2C(=O)C2=C(O)[C@]3(O)C(=O)C(C(N)=O)=C(O)[C@@H](N(C)C)[C@@H]3[C@@H](O)[C@H]12.O=C(O)c1cc(S(=O)(=O)O)ccc1O | neuronal differentiation score | ReNCell VM [1]; library: Spectrum | active: 3
same | dopaminergic neuron differentiation score | ReNCell VM [2]; library: Spectrum | inactive: 0
Cc1cc(O)c2c(c1)C(=O)c1cccc(O)c1C2=O | neuronal differentiation score | ReNCell VM [1]; library: Spectrum | inactive: 0
